These are yes or no findings as the source states them, for the method shown. Some binding calls cover weakened binding; strength is not graded here.
Assays:
[1] = molecular target: T1, human CD151 (human) (UniProt P48509); assay: Western blot of HT-29 cell lysate and human lung, pancreas and colon tissue lysates, non-reductive conditions
T1 sequence (looked up): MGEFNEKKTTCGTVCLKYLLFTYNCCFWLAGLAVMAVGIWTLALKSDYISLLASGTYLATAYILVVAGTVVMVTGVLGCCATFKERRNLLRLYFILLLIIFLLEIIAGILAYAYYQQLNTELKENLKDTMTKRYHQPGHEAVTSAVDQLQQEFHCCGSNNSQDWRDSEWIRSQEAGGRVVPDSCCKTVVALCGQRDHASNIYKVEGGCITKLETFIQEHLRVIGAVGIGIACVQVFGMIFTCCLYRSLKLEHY

[2] = molecular target: T1, human CD151 (human); assay: Western blot (FIG. 8)
[3] = molecular target: T1, human CD151 (human); assay: immunoprecipitation from a Brij 97 lysate of HeLa cells

- binding [1]: binds
- binding [2]: binds
- binding [3]: binds
B1: TS151r antibody (antibody, mouse IgG1, V domains shown)
VH: QVQLQQPGSVVVRPGASVKLSCKASGYTFTSSWMHWAKQRPGQGLEWIGQIHPNSGNTNYNEKFKVKATLTIDTSSSTAYVDLNSLTSGDSAVYYCARGDDAYYSGLYAMDYWGQGTSVTVSS
VL: DIVLTQSPASLAVSLGQRATISCRASQSVSTSRYSYMHWYQQIQGQPPKLLIKYASNLESGVPARFSGSGSGTDFTLNIHPVEEEDTATYHCQHSWEIPYTFGGGTTLEIK
notes: Murine monoclonal from a hybridoma

From patent US20090324600A1 (PIERRE FABRE MEDICAMENT, published 2009)
